Source: the supplement of paper PMC12819154, “High-throughput peptide-centric local stability assay extends protein–ligand identification to membrane proteins, tissues and bacteria” (Nature Structural & Molecular Biology, 2025)
This is one part of the list. Small differences around the control level are noise.

The chains behind the UniProt entries cited, without tags or fusion partners. Where a name states a change or a piece, a line headed by the entry shows the natural chain unless it says otherwise.
UniProt Q9CR80: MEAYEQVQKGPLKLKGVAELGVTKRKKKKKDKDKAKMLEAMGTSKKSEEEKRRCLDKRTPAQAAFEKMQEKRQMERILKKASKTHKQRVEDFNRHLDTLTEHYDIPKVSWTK
UniProt Q9CZI9: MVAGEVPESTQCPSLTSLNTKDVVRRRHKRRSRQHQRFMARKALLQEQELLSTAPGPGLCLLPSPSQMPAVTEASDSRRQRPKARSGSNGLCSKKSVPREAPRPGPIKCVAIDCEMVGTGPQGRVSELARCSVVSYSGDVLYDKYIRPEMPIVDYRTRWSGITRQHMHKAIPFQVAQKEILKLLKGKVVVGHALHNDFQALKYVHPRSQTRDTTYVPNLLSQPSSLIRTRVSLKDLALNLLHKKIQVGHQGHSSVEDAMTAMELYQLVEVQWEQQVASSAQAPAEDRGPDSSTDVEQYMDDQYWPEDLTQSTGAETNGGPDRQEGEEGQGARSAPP
UniProt Q9CXX9: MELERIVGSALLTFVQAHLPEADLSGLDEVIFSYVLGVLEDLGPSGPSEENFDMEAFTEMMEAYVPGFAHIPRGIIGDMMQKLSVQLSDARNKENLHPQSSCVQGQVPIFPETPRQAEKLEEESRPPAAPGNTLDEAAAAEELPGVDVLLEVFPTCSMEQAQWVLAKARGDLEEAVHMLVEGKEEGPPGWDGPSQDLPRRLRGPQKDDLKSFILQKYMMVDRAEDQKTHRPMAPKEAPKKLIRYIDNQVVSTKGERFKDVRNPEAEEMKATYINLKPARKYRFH
UniProt Q9D0K2: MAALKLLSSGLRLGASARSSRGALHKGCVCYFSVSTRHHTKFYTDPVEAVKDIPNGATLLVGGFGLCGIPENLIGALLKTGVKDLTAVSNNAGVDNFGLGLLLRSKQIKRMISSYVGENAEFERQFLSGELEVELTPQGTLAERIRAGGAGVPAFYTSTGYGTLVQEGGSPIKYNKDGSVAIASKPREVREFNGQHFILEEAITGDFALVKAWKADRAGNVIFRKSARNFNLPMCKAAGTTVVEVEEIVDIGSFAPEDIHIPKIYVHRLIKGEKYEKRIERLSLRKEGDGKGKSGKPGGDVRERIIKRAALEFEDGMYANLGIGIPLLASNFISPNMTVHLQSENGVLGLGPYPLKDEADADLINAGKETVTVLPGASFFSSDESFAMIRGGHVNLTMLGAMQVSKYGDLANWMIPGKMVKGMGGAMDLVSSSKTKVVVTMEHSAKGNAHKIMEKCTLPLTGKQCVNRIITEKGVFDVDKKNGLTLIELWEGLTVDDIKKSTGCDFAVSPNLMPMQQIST
UniProt Q9D0M0, whole entry: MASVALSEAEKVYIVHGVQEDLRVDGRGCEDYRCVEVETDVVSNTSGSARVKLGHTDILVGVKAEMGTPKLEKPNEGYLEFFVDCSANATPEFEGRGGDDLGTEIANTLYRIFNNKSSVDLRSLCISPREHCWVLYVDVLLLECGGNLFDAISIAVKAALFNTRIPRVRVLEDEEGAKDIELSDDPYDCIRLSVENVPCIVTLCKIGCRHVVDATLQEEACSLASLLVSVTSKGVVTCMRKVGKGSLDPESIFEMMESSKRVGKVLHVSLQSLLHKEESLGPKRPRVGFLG
UniProt Q9CYV5: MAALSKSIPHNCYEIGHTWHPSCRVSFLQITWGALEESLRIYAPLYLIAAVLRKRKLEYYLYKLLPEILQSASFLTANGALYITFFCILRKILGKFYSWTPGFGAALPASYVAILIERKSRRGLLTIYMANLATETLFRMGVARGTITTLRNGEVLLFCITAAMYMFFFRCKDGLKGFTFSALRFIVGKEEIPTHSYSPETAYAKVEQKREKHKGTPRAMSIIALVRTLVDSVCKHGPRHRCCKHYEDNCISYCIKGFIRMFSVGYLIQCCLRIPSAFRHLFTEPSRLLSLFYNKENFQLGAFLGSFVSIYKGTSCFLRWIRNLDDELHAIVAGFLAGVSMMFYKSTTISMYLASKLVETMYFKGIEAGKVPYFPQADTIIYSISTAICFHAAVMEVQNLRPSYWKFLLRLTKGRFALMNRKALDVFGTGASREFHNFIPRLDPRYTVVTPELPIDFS
UniProt Q9CYT6, whole entry: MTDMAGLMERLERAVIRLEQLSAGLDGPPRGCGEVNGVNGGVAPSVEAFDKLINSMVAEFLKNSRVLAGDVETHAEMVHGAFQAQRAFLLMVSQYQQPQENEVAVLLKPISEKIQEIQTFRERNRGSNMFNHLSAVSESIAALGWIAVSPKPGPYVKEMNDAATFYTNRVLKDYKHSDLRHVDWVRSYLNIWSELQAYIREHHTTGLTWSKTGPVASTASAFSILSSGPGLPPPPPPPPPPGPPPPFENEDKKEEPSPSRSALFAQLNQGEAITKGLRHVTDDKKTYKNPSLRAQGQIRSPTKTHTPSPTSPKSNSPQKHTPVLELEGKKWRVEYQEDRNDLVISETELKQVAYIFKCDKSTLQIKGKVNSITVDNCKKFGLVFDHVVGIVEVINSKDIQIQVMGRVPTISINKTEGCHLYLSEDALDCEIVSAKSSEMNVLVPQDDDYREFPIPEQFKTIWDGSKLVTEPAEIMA
UniProt Q9CWU4: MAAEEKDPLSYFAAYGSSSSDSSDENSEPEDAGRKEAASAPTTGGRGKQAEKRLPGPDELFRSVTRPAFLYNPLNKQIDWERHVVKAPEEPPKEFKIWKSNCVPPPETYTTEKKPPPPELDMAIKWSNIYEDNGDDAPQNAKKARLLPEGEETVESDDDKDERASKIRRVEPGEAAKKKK
UniProt Q9D0G0, whole entry: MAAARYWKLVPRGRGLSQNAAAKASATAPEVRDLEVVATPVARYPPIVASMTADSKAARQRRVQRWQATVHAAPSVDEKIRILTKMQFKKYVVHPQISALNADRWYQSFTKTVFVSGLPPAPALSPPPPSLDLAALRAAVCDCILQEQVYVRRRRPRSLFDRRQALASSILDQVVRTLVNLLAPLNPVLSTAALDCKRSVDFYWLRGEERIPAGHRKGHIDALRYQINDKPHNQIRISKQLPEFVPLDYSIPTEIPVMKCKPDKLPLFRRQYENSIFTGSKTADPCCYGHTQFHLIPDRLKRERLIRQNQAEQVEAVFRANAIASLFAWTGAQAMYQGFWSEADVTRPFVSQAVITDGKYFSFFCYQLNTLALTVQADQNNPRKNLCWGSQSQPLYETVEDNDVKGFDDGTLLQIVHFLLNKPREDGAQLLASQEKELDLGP
UniProt Q9CZX7: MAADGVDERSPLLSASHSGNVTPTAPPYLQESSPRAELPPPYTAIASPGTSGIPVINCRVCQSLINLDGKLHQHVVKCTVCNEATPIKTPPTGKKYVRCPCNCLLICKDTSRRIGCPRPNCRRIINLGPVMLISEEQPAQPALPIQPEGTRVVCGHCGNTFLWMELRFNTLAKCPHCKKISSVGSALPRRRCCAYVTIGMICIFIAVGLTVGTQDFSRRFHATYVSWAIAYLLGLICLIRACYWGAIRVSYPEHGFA
UniProt Q9CW79: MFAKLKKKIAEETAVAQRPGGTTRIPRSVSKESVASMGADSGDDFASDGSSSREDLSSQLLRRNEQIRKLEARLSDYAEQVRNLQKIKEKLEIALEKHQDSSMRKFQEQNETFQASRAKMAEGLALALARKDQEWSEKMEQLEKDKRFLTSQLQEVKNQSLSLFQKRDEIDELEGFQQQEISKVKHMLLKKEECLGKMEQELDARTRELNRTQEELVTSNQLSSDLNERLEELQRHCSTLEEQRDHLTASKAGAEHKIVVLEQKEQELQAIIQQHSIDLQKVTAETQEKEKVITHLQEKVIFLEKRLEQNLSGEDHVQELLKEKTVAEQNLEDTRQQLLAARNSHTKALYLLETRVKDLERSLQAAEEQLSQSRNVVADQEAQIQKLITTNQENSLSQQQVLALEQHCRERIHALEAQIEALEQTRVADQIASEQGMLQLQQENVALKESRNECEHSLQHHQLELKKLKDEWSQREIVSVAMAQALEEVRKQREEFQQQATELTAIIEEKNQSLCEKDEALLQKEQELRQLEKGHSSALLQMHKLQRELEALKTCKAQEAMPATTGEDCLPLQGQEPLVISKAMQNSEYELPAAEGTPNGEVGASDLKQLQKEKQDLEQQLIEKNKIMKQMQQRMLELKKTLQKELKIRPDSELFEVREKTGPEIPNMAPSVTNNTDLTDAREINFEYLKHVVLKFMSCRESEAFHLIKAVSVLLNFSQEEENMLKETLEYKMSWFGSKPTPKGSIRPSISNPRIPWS
UniProt Q9CXA2: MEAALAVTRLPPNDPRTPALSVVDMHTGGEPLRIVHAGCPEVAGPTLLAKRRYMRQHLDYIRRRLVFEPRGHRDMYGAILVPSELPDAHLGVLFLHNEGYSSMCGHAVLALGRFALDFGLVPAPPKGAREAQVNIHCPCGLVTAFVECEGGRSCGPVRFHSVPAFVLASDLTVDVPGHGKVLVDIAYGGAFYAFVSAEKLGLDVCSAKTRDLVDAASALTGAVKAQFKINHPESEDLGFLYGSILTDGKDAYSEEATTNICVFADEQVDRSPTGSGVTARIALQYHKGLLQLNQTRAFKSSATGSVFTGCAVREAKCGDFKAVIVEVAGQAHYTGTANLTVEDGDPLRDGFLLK
UniProt Q9D0M3: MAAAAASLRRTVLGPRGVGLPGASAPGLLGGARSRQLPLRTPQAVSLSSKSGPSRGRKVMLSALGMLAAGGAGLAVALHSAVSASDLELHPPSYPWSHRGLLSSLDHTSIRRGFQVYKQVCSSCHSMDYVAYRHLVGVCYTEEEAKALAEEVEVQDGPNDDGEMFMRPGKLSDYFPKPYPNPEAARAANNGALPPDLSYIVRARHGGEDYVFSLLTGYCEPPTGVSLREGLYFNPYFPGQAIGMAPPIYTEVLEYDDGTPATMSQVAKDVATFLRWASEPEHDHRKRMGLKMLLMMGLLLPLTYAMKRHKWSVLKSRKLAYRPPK
UniProt Q9CWP6: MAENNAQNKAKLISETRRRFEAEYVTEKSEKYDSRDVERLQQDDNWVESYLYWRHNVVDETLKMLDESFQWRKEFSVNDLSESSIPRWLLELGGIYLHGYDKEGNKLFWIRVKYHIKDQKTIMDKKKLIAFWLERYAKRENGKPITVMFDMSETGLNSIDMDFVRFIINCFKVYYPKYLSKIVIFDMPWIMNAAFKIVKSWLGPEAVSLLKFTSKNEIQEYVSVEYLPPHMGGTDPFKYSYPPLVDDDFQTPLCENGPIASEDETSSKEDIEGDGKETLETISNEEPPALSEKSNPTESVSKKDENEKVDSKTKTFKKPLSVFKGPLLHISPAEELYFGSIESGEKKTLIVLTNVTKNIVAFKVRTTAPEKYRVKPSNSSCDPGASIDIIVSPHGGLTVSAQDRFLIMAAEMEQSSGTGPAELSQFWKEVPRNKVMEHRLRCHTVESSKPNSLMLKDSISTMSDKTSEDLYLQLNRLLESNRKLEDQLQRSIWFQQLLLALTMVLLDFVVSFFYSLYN
UniProt Q9D112: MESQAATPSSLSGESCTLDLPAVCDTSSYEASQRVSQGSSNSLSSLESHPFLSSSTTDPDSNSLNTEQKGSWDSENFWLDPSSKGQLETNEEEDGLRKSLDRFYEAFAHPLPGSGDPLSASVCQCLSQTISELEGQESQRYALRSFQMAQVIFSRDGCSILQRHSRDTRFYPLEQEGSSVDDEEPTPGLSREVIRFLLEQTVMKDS
UniProt Q9CY57: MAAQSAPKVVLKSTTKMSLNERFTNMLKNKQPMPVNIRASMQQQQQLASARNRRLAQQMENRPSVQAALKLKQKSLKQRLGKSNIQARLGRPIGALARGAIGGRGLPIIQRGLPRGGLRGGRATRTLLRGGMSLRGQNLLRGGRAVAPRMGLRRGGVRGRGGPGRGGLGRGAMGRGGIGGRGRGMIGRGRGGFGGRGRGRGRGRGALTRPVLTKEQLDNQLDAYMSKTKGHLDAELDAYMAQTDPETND
UniProt Q9CYZ6: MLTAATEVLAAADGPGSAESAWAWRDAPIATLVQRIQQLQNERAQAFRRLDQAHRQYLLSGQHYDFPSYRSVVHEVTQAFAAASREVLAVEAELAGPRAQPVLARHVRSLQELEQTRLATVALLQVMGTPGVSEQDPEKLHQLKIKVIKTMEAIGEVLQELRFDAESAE
UniProt Q9CWL8: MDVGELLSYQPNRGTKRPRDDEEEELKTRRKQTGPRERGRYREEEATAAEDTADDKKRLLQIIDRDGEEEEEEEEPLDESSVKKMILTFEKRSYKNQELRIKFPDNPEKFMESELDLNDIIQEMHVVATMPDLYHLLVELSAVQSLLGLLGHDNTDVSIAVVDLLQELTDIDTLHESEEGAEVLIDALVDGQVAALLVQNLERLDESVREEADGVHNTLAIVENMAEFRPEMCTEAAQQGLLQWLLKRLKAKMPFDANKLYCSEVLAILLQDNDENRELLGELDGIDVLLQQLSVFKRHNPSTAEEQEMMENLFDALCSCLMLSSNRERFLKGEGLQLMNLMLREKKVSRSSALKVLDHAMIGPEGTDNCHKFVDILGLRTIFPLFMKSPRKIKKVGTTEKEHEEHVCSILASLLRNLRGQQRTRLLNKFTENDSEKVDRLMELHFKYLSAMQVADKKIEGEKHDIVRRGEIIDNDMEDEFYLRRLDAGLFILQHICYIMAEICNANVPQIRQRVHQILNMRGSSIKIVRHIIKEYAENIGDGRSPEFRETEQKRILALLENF

compound: CN[C@@H]1C[C@H]2O[C@@](C)([C@@H]1OC)n1c3ccccc3c3c4c(c5c6ccccc6n2c5c31)C(=O)NC4 [staurosporine]; test: log2 fold change of tryptic peptide abundance, ligand vs vehicle (limited proteolysis) (log2 ratio); higher = more trypsin-susceptible (destabilized); conditions: ligand concentration: 20 uM; sample: mouse liver crude lysate; replicate design: treated separately

Row | Target | log2 fold change
1 | UniProt Q9CR80 (peptide sequence: HLDTLTEHYDIPK, peptide start residue: 95) | 0.122
2 | UniProt Q9CZI9 (peptide sequence: AIPFQVAQK, peptide start residue: 170) | -0.434
3 | UniProt Q9CXX9 (peptide sequence: THRPMAPK, peptide start residue: 228) | -0.351
4 | UniProt Q9CRT8 (peptide sequence: FFCFQVLEHQVK, peptide start residue: 54) | 0.255
5 | UniProt Q9D0F9 (peptide sequence: IDAMHGVVGPYVKK, peptide start residue: 222) | -0.804
6 | UniProt Q9CWS0 (peptide sequence: QHELYVGVLGSK, peptide start residue: 46) | -0.152
7 | UniProt Q9D0K2 (peptide sequence: DGSVAIASKPR, peptide start residue: 177) | -0.323
8 | UniProt Q9D0M0 (peptide sequence: VLHVSLQSLLHKEESLGPK, peptide start residue: 265) | 0.0632
9 | UniProt Q9CYV5 (peptide sequence: EFHNFIPR, peptide start residue: 434) | -0.3
10 | UniProt Q9CYT6 (peptide sequence: TYKNPSLR, peptide start residue: 286) | 0.22
11 | UniProt Q9CWU4 (peptide sequence: SVTRPAFLYNPLNK, peptide start residue: 63) | -0.0739
12 | UniProt Q9CY16 (peptide sequence: HSPLTQLGPAK, peptide start residue: 85) | 0.306
13 | UniProt Q9CZL5 (peptide sequence: AAGWSELSER, peptide start residue: 55) | -0.182
14 | UniProt Q9D0G0 (peptide sequence: DLEVVATPVAR, peptide start residue: 33) | 0.202
15 | UniProt Q9CZX7 (peptide sequence: LHQHVVK, peptide start residue: 71) | 0.499
16 | UniProt Q9CW79 (peptide sequence: NQSLSLFQK, peptide start residue: 158) | -0.131

Row | Target | log2 fold change
17 | UniProt Q9CXA2 (peptide sequence: FALDFGLVPAPPKGAR, peptide start residue: 114) | 0.149
18 | UniProt Q9CWT6 (peptide sequence: HLLCAAETGSGK, peptide start residue: 167) | 0.177
19 | UniProt Q9CZL2 (peptide sequence: VEEPEHGASPR, peptide start residue: 30) | 0.173
20 | UniProt Q9CZT5 (peptide sequence: YLQGNTVQLR, peptide start residue: 484) | 0.182
21 | UniProt Q9D0M3 (peptide sequence: KLAYRPPK, peptide start residue: 318) | -0.235
22 | UniProt Q9D0N8 (peptide sequence: QIPVSPGSR, peptide start residue: 141) | 0.225
23 | UniProt Q9CWP6 (peptide sequence: CHTVESSKPNSLMLK, peptide start residue: 442) | -0.501
24 | UniProt Q9CWY8 (peptide sequence: ITSYFSQGPQTCRPQAPHR, peptide start residue: 270) | 0.511
25 | UniProt Q9CWU2 (peptide sequence: HGICVHENK, peptide start residue: 25) | 0.0809
26 | UniProt Q9D112 (peptide sequence: GQLETNEEEDGLRK, peptide start residue: 85) | -0.666
27 | UniProt Q9CR70 (peptide sequence: SMVPLTQRPGTR, peptide start residue: 53) | -0.263
28 | UniProt Q9CY57 (peptide sequence: QPMPVNIR, peptide start residue: 31) | 0.195
29 | UniProt Q9CZB3 (peptide sequence: TYIQTAGLR, peptide start residue: 275) | 0.276
30 | UniProt Q9CYZ6 (peptide sequence: RLDQAHR, peptide start residue: 49) | 0.479
31 | UniProt Q9CWL8 (peptide sequence: VHQILNMR, peptide start residue: 515) | 0.214

Single values from the entries so far.
log2 fold change, UniProt Q9D112 (peptide sequence: GQLETNEEEDGLRK, peptide start residue: 85) is entered as -0.666
log2 fold change, UniProt Q9CWL8 (peptide sequence: VHQILNMR, peptide start residue: 515) is entered as 0.214
log2 fold change, UniProt Q9D0M3 (peptide sequence: KLAYRPPK, peptide start residue: 318) is entered as -0.235
